# Assay results reported in PubChem BioAssay AID485298 (National Center for Advancing Translational Sciences (NCATS), 2010).
# Screen size: about 320,000 compounds; about 740 (0.23%) were called active. This list was built around the results that the source calls inconclusive (neither active nor inactive); the mix of calls is not that of the screen. The call rests on the fitted dose curve; in most records, active means well fitted activation curve with a large enough effect; inconclusive means small, poorly fitted or top-dose-only effect; inactive means no such curve, though single readings can be large or run the other way. A potency beside an inconclusive call is a rough fit, not a confirmed value.
# Experiment: qHTS Assay for Small Molecule Inhibitors of Mitochondrial Division or Activators of Mitochondrial Fusion; further: nearly all actives have a fitted effect of over 45% in size;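 on growth rescue (activation): temperature-sensitive fusion mutants such as fzo1-1 at 37 °C on non-fermentable ethanol glycerol medium; % of control where 0% means no effect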
# Conditions: S. cerevisiae fusion-defective mutant growth rescue, CellTiterGlo 48 h; growth rescue (activation): at 46.1 µM (top of the series) unless noted
# How it was run: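 Read-out: ATP-based luminescence (CellTiterGlo, 10 min ambient) reporting growth of fusion-defective ts yeast after 48 hours at 37C on glycerol/ethanol YPEG medium in the presence of compound.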
# Potency means the concentration at half of the fitted maximal effect.
SMILES,Potency,growth rescue (activation)
CCn1c(-c2cc(-c3ccc(OC(C)C)cc3)nc3ccccc23)n[nH]c1=S,"inconclusive: 20 µM [activator, single point]",–
CCCCCn1c(SCCC(C)C)nc2c1c(=O)[nH]c(=O)n2C,"inconclusive: 15.8 µM [activator, partial curve]",–
CCOc1ccccc1/C=N/n1c(COc2ccccc2)n[nH]c1=S,–,inactive: -10%
Cc1cnc(C(=O)Nc2nnc(SCc3c(Cl)cccc3Cl)s2)cn1,"inconclusive: 7.94 µM [activator, partial curve]",–
COc1cc(CN2CC(=O)N(c3ccc(C)c(Cl)c3)C2=S)cc(OC)c1OC,"inconclusive: 10 µM [activator, partial curve]",–
COc1cc(CNc2ccc(NC(C)=O)cc2)ccc1OCc1ccccc1C,"inconclusive: 35.5 µM [activator, single point]",–
O=c1c2ccccc2nc(/C=C/c2ccc(Br)cc2)n1CCCO,"inconclusive: 10 µM [activator, partial curve]",–
CCCCCCCNC(=O)C1(CC2CC(c3ccccc3)=NO2)CCN(C(=O)c2ccccc2)CC1 (stereo not drawn),"inconclusive: 35.5 µM [activator, single point]",–
O=C(Nc1ccc(OC(F)(F)F)cc1)N1CCN(c2ccnc3cc(Cl)ccc23)CC1,"inconclusive: 35.5 µM [activator, single point]",–
COc1ccc(NC2=C(Cl)C(=O)N(CCc3ccccc3)C2=O)c(OC)c1,–,inactive: 9.65%
CN1CCS/C1=C/C=C1/SC(=S)N(Cc2ccccc2)C1=O,"inconclusive: 3.16 µM [activator, full curve, poor fit]",–
c1ccc2c(c1)OCC(c1nnc3n1-c1ccccc1SC3)O2 (stereo not drawn),"inconclusive: 11.2 µM [activator, partial curve]",–
COc1ccc(CNC(=O)Cn2cccc2C(=O)c2ccccc2)cc1,–,inactive: 0.868%
COc1cc(C)c(Br)cc1S(=O)(=O)NCc1cccs1,–,inactive: 3.6%
Cc1ccc(OCC(=O)Nc2ccccc2[N+](=O)[O-])c(Br)c1,"inconclusive: 35.5 µM [activator, single point]",–
Fc1cccc(/C=N/N=C/c2cccc(F)c2)c1,"inconclusive: 25.9 µM [activator, single point]",–
CC1Nc2ncnc(N3CCN(c4ccccc4)CC3)c2N(Cc2ccc(Br)cc2)C1=O (stereo not drawn),"inconclusive: 22.4 µM [activator, single point]",–
CN1CCN(c2nc3cc(C(F)(F)F)ccc3n3cccc23)CC1,active: 18.4 µM,–
CCOC(=O)CSc1ccc(S(=O)(=O)N2CCCCC2)cc1[N+](=O)[O-],"inconclusive: 10 µM [activator, partial curve]",–
COc1ccc([C@H]2[C@@H]3C=CCC[C@@]3(C)C(=O)N2Cc2ccccc2)cc1Cl,"inconclusive: 28.2 µM [activator, partial curve]",–
COc1ccc(NC(=O)n2ncc3c(C)cccc32)cc1OC,"inconclusive: 25.1 µM [activator, partial curve]",–
C/C(=N\NC(=O)c1ccco1)c1ccc(NC(=O)C(F)(F)F)cc1,–,inactive: 2.64%
CCn1c(SCc2ccc(Cl)cc2)nc2nc3c(cc2c1=O)CCCC3,"inconclusive: 10 µM [activator, partial curve]",–
CCCCc1cc(=O)oc2cc(OCC(=O)NCc3ccccn3)ccc12,"inconclusive: 10 µM [activator, partial curve]",–
c1ccc2c(Cn3nnc4ccccc43)cccc2c1,"inconclusive: 14.1 µM [activator, single point]",–

# An excerpt from above in order of SMILES length, largest number first:
SMILES,Potency,growth rescue (activation)
C/C(=N\NC(=O)c1ccco1)c1ccc(NC(=O)C(F)(F)F)cc1,–,inactive: 2.64%
CCOc1ccccc1/C=N/n1c(COc2ccccc2)n[nH]c1=S,–,inactive: -10%
O=c1c2ccccc2nc(/C=C/c2ccc(Br)cc2)n1CCCO,"inconclusive: 10 µM [activator, partial curve]",–

# Additional structures follow:

SMILES,Potency,growth rescue (activation)
CS(=O)(=O)N1CCN(c2ccccc2NC(=O)c2ccc3ccccc3c2)CC1,"inconclusive: 11.2 µM [activator, partial curve]",–
CC(=O)Nc1ccc(C(=O)OCc2ccc(F)cc2Cl)cc1,active: 12.6 µM,–
CCOc1ccc2[nH]c(C)c(CN3CCCCC3)c(=O)c2c1,–,inactive: 4.55%
Cc1nc2ccccc2c2oc(C(=O)Nc3ccc(C(C)C)cc3)cc12,–,inactive: -6.95%
Nn1c(Cc2ccc(Br)cc2)n[nH]c1=S,"inconclusive: 12.6 µM [activator, partial curve]",–
COc1ccccc1C1=CC(=O)C[C@H](c2ccc(F)cc2)C1,"inconclusive: 11.2 µM [activator, single point]",–
O=C1C=C(c2cccc(O)c2)C[C@@H](c2ccc(F)cc2)C1,"inconclusive: 20 µM [activator, single point]",–
O=C(CCCN1C(=O)C(c2ccccc2)Oc2cccnc21)Nc1ccccc1Cl (stereo not drawn),"inconclusive: 8.91 µM [activator, partial curve]",–
O=C(Nc1c2c(nn1-c1ccc(F)cc1)CS(=O)(=O)C2)c1ccc(Br)o1,"inconclusive: 3.98 µM [activator, partial curve]",–
Cn1c(=O)c2c(SCc3cccnc3)nc(CC(C)(C)C)nc2n(C)c1=O,"inconclusive: 14.1 µM [activator, partial curve]",–
Cc1ccc(NC(=O)CSc2nnc(-c3ccc(S(=O)(=O)N4CCOCC4)cc3)n2C)cc1,"inconclusive: 6.31 µM [activator, single point]",–
Cc1cc(C(=O)OCC(=O)NCc2ccco2)c(C)n1-c1ccc(F)cc1,–,inactive: -2.47%
Cc1noc(C)c1CNCc1ccccc1,"inconclusive: 0.501 µM [activator, full curve, poor fit]",–
Cc1cc2cc(CN3C(=O)c4ccccc4C3=O)ccc2n1C,–,inactive: -1.79%
Cc1cc(C(=O)N2CCCC(N3CCN(c4cccc(C(F)(F)F)c4)CC3)C2)nn1C (stereo not drawn),"inconclusive: 11.2 µM [activator, partial curve]",–
C=C(C)C1Cc2cc3ccc(=O)oc3cc2O1 (stereo not drawn),–,inactive: 3.87%
O=C(c1cnccn1)N1CCc2c([nH]c3ccccc23)C1c1cccc(Cl)c1 (stereo not drawn),"inconclusive: 14.1 µM [activator, partial curve]",–
CN(C)c1nc(=S)nc(NCc2ccccc2)[nH]1,"inconclusive: 35.5 µM [activator, partial curve, poor fit]",–
Cc1nn(-c2ccccc2)c(Cl)c1C(=O)OC(C)C(=O)NC(=O)NC1CCCCC1 (stereo not drawn),"inconclusive: 5.01 µM [activator, full curve]",–
COc1ccc(Cl)cc1NC(=O)CN(C)C(=O)c1cc2c(F)cccc2s1,"inconclusive: 15.8 µM [activator, single point]",–
CCn1c(/C=N/NC(=O)c2ccc(OC)cc2)nc2ccccc21,"inconclusive: 31.6 µM [activator, single point]",–
CN(C(=O)CSc1nc(-c2ccccc2)cn1N)C(c1ccccc1)c1ccccc1,"inconclusive: 20 µM [activator, single point]",–
Cc1ccc(/C(=N\S(=O)(=O)c2ccc(Br)cc2)Nc2ccccc2C)cc1,–,inactive: -4.81%
CCOC(=O)c1c(-c2ccc(C)cc2)csc1NC(=O)CCN1CCOCC1,active: 12.6 µM,–
CC(C)Cn1c(SCC(=O)N2CCCc3ccccc32)nc2ccccc2c1=O,"inconclusive: 12.6 µM [activator, partial curve]",–

SMILES,Potency,growth rescue (activation)
CN(C)/C=C/C(=O)c1ccc(Cl)c([N+](=O)[O-])c1,–,inactive: 1.43%
COc1ccc(NC(=O)c2nn(C34CC5CC(CC(C5)C3)C4)cc2[N+](=O)[O-])cc1,"inconclusive: 35.5 µM [activator, single point]",–
CC(c1ccccc1)C1CC(=O)N(Cc2ccccc2)C1=O (stereo not drawn),–,inactive: 27.5%
Fc1ccccc1N1CCN(C(c2ccccn2)c2nnnn2C2CCCCC2)CC1 (stereo not drawn),active: 12.6 µM,–
CC1CCc2c(sc3ncnc(NS(=O)(=O)c4cccs4)c23)C1 (stereo not drawn),"inconclusive: 35.5 µM [activator, single point]",–
COC(=O)c1sc2nc3c(cc2c1N)CCCC3,"inconclusive: 28.2 µM [activator, partial curve]",–
CC(C)(C)C(=O)Nc1sc2c(c1-c1nc3ccccc3[nH]1)CCCC2,–,inactive: -3.03%
O=C(N/N=C\c1ccc(Oc2ccccc2)cc1)c1csnn1,"inconclusive: 35.5 µM [activator, single point]",–
Cc1c(CCC(=O)O)c(=O)oc2cc3oc4c(c3cc12)CCCC4,–,inactive: 15.8%
CC(=O)Nc1ccc2nc(-c3cccs3)[nH]c2c1,–,inactive: -3.1%
COC(=O)c1ccccc1NC(=O)C1CCN(c2ncnc3c2nc2n3CCCCC2)CC1,"inconclusive: 17.8 µM [activator, partial curve]",–
CC(C)(C)c1ccc(/C=C/C(=O)NC2=NCCS2)cc1,–,inactive: 5.1%
Cc1ccc(C(=O)N2CCCCC2)cc1NC1=C(Cl)C(=O)N(Cc2ccccc2)C1=O,"inconclusive: 20 µM [activator, single point]",–
COc1ccc(Nc2nc3ccc(C)cc3n3cnnc23)cc1Cl,"inconclusive: 14.1 µM [activator, partial curve]",–
CCc1cccc(NC(=O)C2CCCN(c3ncnc4c3nc3n4CCCCC3)C2)c1 (stereo not drawn),–,inactive: 22.4%
Cc1cc2c([nH]c3ccccc32)c(C)n1,–,inactive: -1.52%
O=C(O)c1ccccc1NS(=O)(=O)c1cccc(C(F)(F)F)c1,–,inactive: -0.239%
CCc1c(C)nc(N2CCN(c3ccc(Cl)cc3)CC2)[nH]c1=O,–,inactive: -0.314%
CC1=CC(C)(C)Nc2ccc(OC(=O)C(C)N3C(=O)c4ccccc4C3=O)cc21 (stereo not drawn),–,inactive: 21.7%
Cc1cc(=O)oc2c(C)c(OCC(=O)N3CCN(c4cccc(Cl)c4)CC3)ccc12,"inconclusive: 12.6 µM [activator, partial curve]",–
O=C(NNC(=O)c1cccc(Br)c1)Nc1ccc(Cl)cc1,–,inactive: 0.922%
COc1ccc(CCNC(=O)c2ccc(CS(=O)(=O)c3ccc(Cl)cc3)o2)cc1OC,–,inactive: -0.223%
CC1=CC2=NC(=O)/C(=C\c3cccn3CCOc3ccccc3)C(=N)N2O1,"inconclusive: 31.6 µM [activator, single point]",–
